Results published in PubChem BioAssay AID2685 (National Center for Advancing Translational Sciences (NCATS), 2010).
The campaign covered roughly 320,000 compounds. About 2,100 (0.66%) were called active. This list was built around the results that the source calls inconclusive (neither active nor inactive); the mix of calls is not that of the screen. Calls follow the shape of the dose curve; as a rule, active = well fitted inhibition curve with a large enough effect in the signal ratio, with a control signal flat (not every such curve was filed as active); inconclusive = small, poorly fitted or top-dose-only effect, or effect the other way, or a change in a side signal; inactive = flat fitted curve, though single readings scatter; the % refers to the signal ratio. A potency beside an inconclusive call is a rough fit, not a confirmed value.

test: qHTS Assay for Lipid Storage Modulators in Drosophila S3 Cells; conditions: BODIPY lipid droplet fluorescence, 18-24 h, cells fed with added oleic acid; lipid storage change, negative = inhibition: at 46.1 µM (top of the series) unless noted
Summary of the method: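 Laser-scanning cytometry quantifies lipid droplet accumulation (500–530 nm total intensity; droplet/cell object ratio) in oleic acid-fed (400 uM added) Drosophila S3 cells treated with a concentration series. 20 uM Triacsin C defined 100% inhibition.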
% is scaled to controls: 0 for no effect and ±100 for the full control effect; potency is read from the fitted curve at half-maximal effect.

Row | SMILES | lipid storage change, negative = inhibition | Potency
1 | O=S(=O)(c1ccccc1)N1CCN(CCc2ccccc2)CC1 | inconclusive: -100% | 
2 | Cc1cc(S(=O)(=O)NCCCN2CCOCC2)ccc1Br | inconclusive: -3.59% | 
3 | O=S(=O)(NCC1CCCO1)c1ccc(Cl)cc1 (stereo unspecified) |  | inconclusive: 3.66 µM [activator, full curve, poor fit]
4 | Cc1ccc(-c2nc3cccnc3o2)cc1NC(=O)COc1ccc(Cl)cc1C |  | inconclusive: 1.3 µM [activator, full curve]
5 | O=C(NCc1ccccc1)C12CC3CC(CC(C3)C1)C2 | inconclusive: -32.6% | 
6 | O=S(=O)(CCc1ccccc1)/N=C/c1cccs1 | inconclusive: -7.24% | 
7 | Cc1csc(NC(=O)c2ccco2)c1C(=O)c1ccccc1 |  | inconclusive: 4.11 µM [activator, full curve, poor fit]
8 | O=C(Nc1ccccc1)N1CCCN(c2ccc(C(F)(F)F)cn2)CC1 | inconclusive: 2.36% | 
9 | CCOc1ccc2nc(NC(=O)c3ccc(S(=O)(=O)N4CCOCC4)cc3)sc2c1 | inconclusive: 27.6% | 
10 | O=c1[nH]c(=O)n(C2C[C@H](O)[C@@H](CO)O2)cc1C(F)(F)F (stereo partly specified) | inconclusive: -19.6% | 
11 | CCOC(=O)C1=C(NC#N)OC(C)=C(C)C1c1ccc(O)cc1 (stereo unspecified) | inconclusive: 51.8% | 
12 | COCCNCC(O)CON=C1c2ccccc2-c2ccccc21 (stereo unspecified) |  | inconclusive: 6.51 µM [falling, single point]
13 | CCOC(=O)c1ccc(NC(=O)c2ccc(CN3CCc4ccccc4C3)cc2)cc1 |  | inconclusive: 18.4 µM [falling, single point]
14 | CCOc1ccc(S(=O)(=O)N2CCCCC2)cc1NC(=O)CN1C(=O)NC(CC)(c2ccccc2)C1=O (stereo unspecified) | inconclusive: 15.3% | 
15 | CSc1cccc(NC(=O)/C=C/c2cccc(Cl)c2)c1 | inconclusive: -6.89% | 
16 | CCc1cc2c3c(c(=O)oc2cc1O)CCCC3 | inconclusive: -8.11% | 
17 | O=C(NCc1ccccc1)C(=O)NCC(c1ccco1)N1CCN(c2ccccc2F)CC1 (stereo unspecified) | inconclusive: 1.97% | 
18 | O=C(Nc1cccc(-n2cnnn2)c1)c1cc2ccccc2o1 | inconclusive: -2.94% | 
19 | CCN(CC)C(=O)c1[nH]cnc1C(=O)Nc1cccc(C)c1 | inconclusive: 13.4% | 
20 | CC(=O)c1ccc(NC(=S)Nc2ccc(N3CCOCC3)cc2)cc1 | inconclusive: 38.3% | 
21 | CCOC(=O)CN(C(=O)CSc1nnc2c(n1)[nH]c1ccc(OC)cc12)c1ccc(F)cc1 |  | inconclusive: 0.164 µM [falling, partial curve, poor fit]

Row | SMILES | lipid storage change, negative = inhibition | Potency
22 | O=C(O)CCCN1C(=O)C(=O)/C(=C(/O)c2ccccc2)C1/C=C/c1ccccc1 (stereo unspecified) | inconclusive: 21.9% | 
23 | CC(=O)c1ccc(OCCCCOc2ccc(C(C)=O)cc2)cc1 |  | inconclusive: 29.1 µM [activator, single point]
24 | COC(=O)c1ccc(OCC(=O)c2ccc(O)cc2O)cc1 | inconclusive: 11.5% | 
25 | O=C(NCc1cccnc1)c1ccc(=O)oc1 | inconclusive: -15% | 
26 | Cc1cccc(CSc2nnc(C)c(=O)n2N)c1 | inconclusive: 15.6% | 
27 | Cc1noc(C)c1C(=O)OCC(=O)Nc1ccc(S(N)(=O)=O)cc1 | inconclusive: -4.31% | 
28 | Cn1c(=N)n(CC(=O)c2ccc(Br)s2)c2ccccc21 | inconclusive: -3.66% | 
29 | Cc1cccc(NC(=O)NCCCCc2ccccc2)c1 | inconclusive: -23.4% | 
30 | CN1CCc2c(sc(NC(=O)c3ccc4ccccc4c3)c2C(N)=O)C1 | inconclusive: -63% | 
31 | O=C1NCCCCC1NS(=O)(=O)c1ccccc1 (stereo unspecified) | inconclusive: -17.5% | 
32 | CCN(CC(=O)NCc1ccc(Cl)cc1)C(=O)c1ccc2cc(OC)ccc2c1 |  | inconclusive: 20.6 µM [activator, single point]
33 | CC(Oc1ccccc1)C(=O)N1CCC2(CC1)CC(=O)c1ccccc1O2 (stereo unspecified) | inconclusive: 22.5% | 
34 | CC(C)c1ccc(/C=C2\SC(=S)N(CC(=O)NCCCN3CCOCC3)C2=O)cc1 |  | inconclusive: 5.17 µM [falling, single point]
35 | C(=N\Nc1nnnn1-c1ccccc1)/c1ccncc1 | inconclusive: 12.3% | 
36 | COc1ccccc1-c1sc2ccccc2c1-c1ccccc1OC | inconclusive: -18.8% | 
37 | CCS(=O)(=O)c1ccc2oc(Nc3cccc(OC)c3)nc2c1 | inconclusive: 23.9% | 
38 | O=C1c2cccc(OCC(=O)N3N=C(c4cccs4)CC3c3ccc(F)cc3)c2CCN1Cc1ccccc1 (stereo unspecified) | inconclusive: -2.75% | 
39 | Cc1cccc(C(=O)NC2CCN(C(=O)NCc3ccccc3)CC2)c1 |  | inconclusive: 29.1 µM [activator, partial curve]
40 | COc1ccc2nc(NC(=O)C3CC(=O)N(c4ccccc4)C3)sc2c1 (stereo unspecified) | inconclusive: 98.3% | 
41 | COc1ccccc1NC(=O)Cn1cnc2c(cnn2-c2ccc(C)c(C)c2)c1=O | inconclusive: -16.6% | 
42 | CS(=O)(=O)c1ccc([C@@H](O)[C@@H](CO)NC(=O)C(Cl)Cl)cc1 | inconclusive: 8.03% | 

Individual results from the list:
Under lipid storage change, negative = inhibition, COC(=O)c1ccc(OCC(=O)c2ccc(O)cc2O)cc1 reads inconclusive: 11.5%
Under lipid storage change, negative = inhibition, COc1ccc2nc(NC(=O)C3CC(=O)N(c4ccccc4)C3)sc2c1 (stereo unspecified) reads inconclusive: 98.3%
Under Potency, CCN(CC(=O)NCc1ccc(Cl)cc1)C(=O)c1ccc2cc(OC)ccc2c1 reads inconclusive: 20.6 µM [activator, single point]
Under lipid storage change, negative = inhibition, CN1CCc2c(sc(NC(=O)c3ccc4ccccc4c3)c2C(N)=O)C1 reads inconclusive: -63%

2 entries from above, comma-delimited.
Row,SMILES,"lipid storage change, negative = inhibition",Potency
33,CC(Oc1ccccc1)C(=O)N1CCC2(CC1)CC(=O)c1ccccc1O2 (stereo unspecified),inconclusive: 22.5%,
38,O=C1c2cccc(OCC(=O)N3N=C(c4cccs4)CC3c3ccc(F)cc3)c2CCN1Cc1ccccc1 (stereo unspecified),inconclusive: -2.75%,

Later entries:

Row | SMILES | lipid storage change, negative = inhibition | Potency
43 | COc1ccc(CCNC(=O)CN2CCCc3ccccc32)cc1OC |  | inconclusive: 20.6 µM [falling, single point]
44 | Cc1cccc(N2CCN(C(=O)CSc3ccc4c(c3)OCCO4)CC2)c1C | inconclusive: -0.0416% | 
45 | N/C(=N\OC(=O)CC1CCCCC1)c1cccc(Br)c1 | inconclusive: -3.36% | 
46 | COC(=O)c1cc2c(s1)-c1ccccc1OC2 | inconclusive: 2.11% | 
47 | COc1cc(OC)c(C(=O)NCC(c2cccs2)N(C)C)cc1OC (stereo unspecified) |  | inconclusive: 18.4 µM [activator, single point]
48 | O=C(CNc1cccc2ccccc12)N/N=C/c1ccc([N+](=O)[O-])cc1 | inactive | 
49 | CS(=O)(=O)NCc1ccccc1Br | inconclusive: -12% | 
50 | CCOc1ccc(N2C(=O)CN(O)C=C3N=c4ccccc4=C32)cc1 | inconclusive: -3.13% | 
51 | CC(=O)c1cccc(NC(=O)CNC(=O)c2sc3ccccc3c2Cl)c1 |  | inconclusive: 0.259 µM [activator, full curve, poor fit]
52 | Cc1csc(NC(=O)C2CCCN(S(=O)(=O)c3cccnc3)C2)n1 (stereo unspecified) | inconclusive: -44% | 
53 | O=C(Nc1nnc(C(F)(F)F)s1)C1COc2ccccc2O1 (stereo unspecified) |  | inconclusive: 6.51 µM [falling, single point]
54 | CNC(=O)COC(=O)/C=C/c1ccc(F)cc1 | inconclusive: -0.808% | 
55 | CCOC(=O)c1c(C)[nH]c(C(=O)COC(=O)COc2ccccc2C)c1C |  | inconclusive: 4.11 µM [activator, full curve, poor fit]
56 | OCCN(CCO)CC(O)CN1c2ccccc2Sc2ccccc21 (stereo unspecified) | inconclusive: 103% | 
57 | CCOc1ccc(CNn2cnnc2)cc1 | inconclusive: 0.352% | 
58 | CN(CC(O)CON=C1c2ccccc2-c2ccccc21)S(=O)(=O)c1ccc(Br)cc1 (stereo unspecified) |  | inconclusive: 6.51 µM [falling, partial curve]
59 | O=[N+]([O-])c1ccc(Nc2c3ccccc3nc3ccccc23)cc1 | inconclusive: -44.7% | 
60 | COc1ccc(OC)c(N/C(C)=C/C(=O)c2ccccc2)c1 | inconclusive: -24.8% | 
61 | COc1ccc(N2C(=O)C(Cc3ccccc3)NC2=S)cc1 (stereo unspecified) | inconclusive: 30.8% | 
62 | O=C1c2ccccc2C(=O)N1CC1c2ccccc2CCN1C(=O)N1CCOCC1 (stereo unspecified) | inconclusive: 0.589% | 
63 | O=C(NN1C(=O)C2C3CCC(O3)C2C1=O)c1ccco1 (stereo unspecified) | inconclusive: 2.98% | 

Row | SMILES | lipid storage change, negative = inhibition | Potency
64 | Cc1ccc(NC(=O)CN(C)C(=O)Cn2cc(C(F)(F)F)cc(Cl)c2=O)cc1 | inconclusive: 4.64% | 
65 | Cc1cccc(C2C3=C(CCCC3=O)N=C3c4ccccc4C(=O)C32)c1 (stereo unspecified) | inconclusive: -9.91% | 
66 | O=C(O)c1ccc(S(=O)(=O)Nc2ccc(F)c(Cl)c2)cc1 | inconclusive: 9.17% | 
67 | O=C(c1ccc([N+](=O)[O-])cc1)N1C=CC(C(F)(F)F)=NCC1 |  | inconclusive: 32.6 µM [cytotoxic, single point]
68 | O=C(CNc1ccc(F)cc1)N/N=C/c1c(O)ccc2ccccc12 | inactive | 
69 | COc1ccc(-n2nnnc2Sc2ccc(S(=O)(=O)N3CCOCC3)cn2)cc1 | inconclusive: 18.7% | 
70 | Cc1nc(Nc2ccc(S(N)(=O)=O)cc2)sc1-c1ccccc1 | inconclusive: 40.2% | 
71 | CCCc1nc(SCc2ccc(Cl)cc2Cl)n[nH]1 | inconclusive: 76.5% | 
72 | N=C1C=CC=C2C1=NC1(CCCCC1)N2O | inconclusive: -0.0141% | 
73 | COc1ccccc1CNC(=O)COC(=O)C1CCN(S(=O)(=O)c2ccccc2)CC1 | inconclusive: -14.3% | 
74 | CC(C)(C)OC(=O)CNC(=O)c1nc[nH]c1C(=O)NCC(=O)OC(C)(C)C | inconclusive: 11.2% | 
75 | CC(C)(C)N/N=C/c1c(O)n(-c2ccc(Cl)cn2)c(=O)c2ccccc12 |  | inconclusive: 29.1 µM [activator, single point]
76 | Cc1cc(OCCOCCN(C)C)ccc1Cl | inconclusive: -10.6% | 
77 | Cc1cc2nc(NC3=NCN(Cc4ccc5c(c4)OCO5)CN3)nc(C)c2cc1C |  | inconclusive: 6.51 µM [activator, single point]
78 | COc1ccc(C(=O)N2CCN(CCNC(=O)C(=O)Nc3ccc(F)cc3)CC2)cc1OC |  | inconclusive: 0.58 µM [activator, single point]
79 | COc1ccc(CCNC(=O)CCCCC(=O)NCCc2ccc(OC)cc2)cc1 | inconclusive: 34.8% | 
80 | O=C(NC1CCCc2ccccc21)c1cccc(Br)c1 (stereo unspecified) | inconclusive: 21.6% | 
81 | CCOC(=O)CNC(=O)CSc1ccc(-c2nc3ccccc3[nH]2)cn1 | inconclusive: 14.1% | 
